# Experimental data taken from PubChem BioAssay AID720504 (National Center for Advancing Translational Sciences (NCATS), 2013).
# By UniProt entry, the sequences of proteins in these tests, tags left out.
# UniProt P53350, whole entry, looked up: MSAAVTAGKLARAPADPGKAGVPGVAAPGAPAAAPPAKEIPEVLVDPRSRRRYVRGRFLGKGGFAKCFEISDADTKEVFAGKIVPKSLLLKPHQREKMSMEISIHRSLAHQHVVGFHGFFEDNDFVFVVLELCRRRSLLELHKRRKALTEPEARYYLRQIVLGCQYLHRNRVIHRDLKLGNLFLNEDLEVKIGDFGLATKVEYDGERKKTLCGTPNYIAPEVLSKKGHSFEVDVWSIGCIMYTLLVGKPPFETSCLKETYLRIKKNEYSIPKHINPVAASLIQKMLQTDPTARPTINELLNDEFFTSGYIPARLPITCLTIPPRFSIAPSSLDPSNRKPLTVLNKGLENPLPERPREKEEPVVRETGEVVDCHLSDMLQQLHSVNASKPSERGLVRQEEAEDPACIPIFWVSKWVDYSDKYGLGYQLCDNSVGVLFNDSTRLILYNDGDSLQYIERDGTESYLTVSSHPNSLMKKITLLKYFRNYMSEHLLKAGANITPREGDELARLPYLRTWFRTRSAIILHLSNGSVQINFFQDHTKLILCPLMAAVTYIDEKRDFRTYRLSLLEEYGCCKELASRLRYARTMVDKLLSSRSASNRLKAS
# Among all 360,000 compounds or so, about 10,000 (2.8%) were called active. Inconclusive means that the source gave no clear call. Such entries were picked first, then a sample of the others. Calls follow the shape of the dose curve; as a rule, active = well fitted inhibition curve with a large enough effect; inconclusive = small, poorly fitted or top-dose-only effect; inactive = flat fitted curve, though single readings scatter. Where the call is inconclusive, the potency comes from a doubtful curve fit.
# Target: Serine/threonine-protein kinase PLK1 (Homo sapiens) (UniProt P53350)
# Test: qHTS for Inhibitors of PLK1-PDB (polo-like kinase 1 - polo-box domain): Primary Screen; also: nearly all actives have a fitted effect of over 65% in size; as to max response, negative = inhibition: series mostly up to about 57 µM
# Conditions: Plk1 PBD binding of FITC phosphopeptide, fluorescence polarization
# % is scaled to controls: 0 for no effect and ±100 for the full control effect; potency is read from the fitted curve at half-maximal effect.
Compound,"max response, negative = inhibition",Potency
Cc1cc(C)cc(NC(=O)CN2C(=O)c3ccccc3C2=O)c1,inactive: -3.07%,
COc1ccc(C=C2NC(=S)NC2=O)cc1,inactive: -24.5%,
COC(=O)[C@H](C)N(Cc1ccc(Cl)c(Cl)c1)S(=O)(=O)CCN1CCN(c2ccccc2)CC1,inactive: -1.79%,
CC1c2ccsc2CCN1S(=O)(=O)c1cccs1 (stereo unspecified),inactive: 2.06%,
C/C(N)=C(/C#N)C(=O)CSc1ccccc1F,,"inconclusive: 26.7 µM [inhibitor, partial curve]"
COc1ccc(-c2coc3c(C)c4oc(=O)c(CCC(=O)O)c(C)c4cc23)cc1,,"inconclusive: 29.9 µM [inhibitor, partial curve]"
Cc1ccc(/C=N/Nc2nc3ccccc3s2)o1,inactive: -3.78%,
CC(C)C1S/C(=N/N=C/c2ccco2)NC1=O (stereo unspecified),inactive: -1.51%,
CCCCCn1c(SCC(=O)c2ccccc2)nc2cc(C(=O)NCC3CCCO3)ccc2c1=O (stereo unspecified),,"inconclusive: 37.7 µM [inhibitor, single point]"
CCN(c1ccccc1)S(=O)(=O)c1ccc2c(c1)C(C)(C)C(=O)N2C,inactive: -2.45%,
O=C(O)c1ccccc1C(=O)NNc1ccc(Cl)cc1Cl,,"inconclusive: 8.44 µM [inhibitor, partial curve]"
O=C(CSc1nnc(COc2ccc(Cl)cc2)o1)NC1CC2CCC1C2 (stereo unspecified),,"inconclusive: 37.7 µM [inhibitor, single point]"
Cc1cccc(OCCCN2C(=O)C(=O)c3cc(C)ccc32)c1,,"inconclusive: 23.8 µM [inhibitor, single point]"
O=Cc1ccc2oc3nc4n(c(=O)c3c(=O)c2c1)CCCS4,,"inconclusive: 18.9 µM [inhibitor, partial curve]"
COc1ccccc1/C=N/NC(=O)C(=O)Nc1ccccc1OC(F)(F)C(F)F,inactive: 3.45%,
Cc1ccc(S(=O)(=O)/N=C2\C=C(Nc3cccc(C(=O)O)c3)C(=O)c3ccccc32)c(C)c1,,active: 26.7 µM
O=C(CSc1nc2ccccc2[nH]1)c1ccco1,,"inconclusive: 18.9 µM [inhibitor, partial curve]"
CCOC(=O)c1[nH]c(C)c(/C(O)=C2\C(=O)C(=O)N(CCCN(CC)CC)C2c2cccnc2)c1C (stereo unspecified),inactive: -8.45%,
O=C(O)COc1ccc(/C=C/c2nc3ccc([N+](=O)[O-])cc3s2)cc1,,active: 23.8 µM
CC(=O)Oc1oc(-c2ccccc2)nc1/C=N/c1ccccn1,,active: 9.47 µM
COc1cc2nc(NC(=O)c3ccc(F)cc3Cl)sc(=O)c2cc1OC,,"inconclusive: 42.3 µM [inhibitor, partial curve]"
CCc1ccc(OCC(=O)N/N=C\c2ccco2)c([N+](=O)[O-])c1,inconclusive: -33% [inhibitor],
COc1ccc(C)cc1N(CC(=O)Nc1cccc(N(C)S(C)(=O)=O)c1)S(C)(=O)=O,,"inconclusive: 29.9 µM [inhibitor, single point]"

Compound,"max response, negative = inhibition",Potency
CSc1nccc(-c2nn(-c3ccc(C)cc3)ccc2=O)n1,,"inconclusive: 26.7 µM [inhibitor, single point]"
CCCCNC(=O)Oc1cccc(N2CCCC2=O)c1,,"inconclusive: 37.7 µM [inhibitor, single point]"
COc1cccc(/C=N/NC(=O)C(=O)N/N=C/c2cccc(OC)c2O)c1O,inactive: -12.6%,
NC(=S)NN=C1c2ccccc2-c2c(F)c(F)c(F)c(F)c21,,active: 8.44 µM
CC(Oc1ccccc1F)c1ccnc2nc(/N=C/N(C)C)nn12 (stereo unspecified),,"inconclusive: 23.8 µM [inhibitor, single point]"
O=c1c(-c2ccco2)[n+]([O-])c2ccccc2n1OCc1ccccc1,,"inconclusive: 5.32 µM [inhibitor, partial curve]"
CCOc1ccccc1OC(=O)c1cc2ccccc2oc1=O,,active: 21.2 µM
Cc1cc(NC(=O)Cc2cccs2)no1,,"inconclusive: 26.7 µM [inhibitor, partial curve]"
O=S(=O)(Nc1nnc(C2CC2)s1)c1ccccc1,,"inconclusive: 21.2 µM [inhibitor, single point]"
Cc1nc(SCC(=O)NC(C)c2ccccc2)c2oc3ccccc3c2n1 (stereo unspecified),inactive: -4.89%,
COc1ccc(/C=C/C(=O)NC(=S)NNC(=O)Cc2cccs2)cc1OC,inactive: -19%,
CC(C)C(CCNC(=O)CC(Cc1ccccc1)c1ccco1)c1ccco1 (stereo unspecified),inactive: -17.2%,
CC1CCN(C(=O)COC(=O)c2cc3ccccc3cc2O)CC1,,"inconclusive: 23.8 µM [inhibitor, single point]"
CCCn1c2ccccc2c2cnn(CC(=O)NC3CCCCC3C)c(=O)c21 (stereo unspecified),inactive: -1.85%,
C#CCN(C[C@H]1[C@H](OC(=O)NCc2ccco2)[C@H](OC(=O)NCc2ccco2)C[C@@H](C(=O)OC)[C@H]1C(=O)OC)S(=O)(=O)c1ccc(C)cc1,,"inconclusive: 29.9 µM [inhibitor, single point]"
O=c1c(-c2cccnc2)nc2ccccc2n1C(c1ccccn1)c1nc2ccccc2[nH]1 (stereo unspecified),,"inconclusive: 26.7 µM [inhibitor, partial curve]"
C=C[C@]1(C)C=C2C(=O)[C@@]3(O)OC(=O)[C@@]4(CCCC(C)(C)[C@H]34)[C@@]2(O)CC1,,"inconclusive: 29.9 µM [inhibitor, partial curve]"
CCCNC(=O)CSc1nnc(-c2ccco2)n1C,,active: 2.67 µM
CCOc1ccccc1NC(=O)c1nc(S(=O)(=O)Cc2ccccc2)ncc1Cl,,"inconclusive: 10.6 µM [inhibitor, partial curve]"
COc1cccc(NC2=CC(=O)CC(C)(C)C2)c1,inactive: -7.97%,
Cc1ccc2c(c1)c(-c1ccccc1)nc1nnnn12,,active: 23.8 µM
Cc1oc(-c2ccc3c(c2)OCCO3)cc1C(=O)NC(Cc1ccccc1)C(=O)O (stereo unspecified),,"inconclusive: 37.7 µM [inhibitor, single point]"
O=C(c1ccc(S(=O)(=O)NCc2ccco2)cc1)N1CCN(Cc2ccc3c(c2)OCO3)CC1,,"inconclusive: 26.7 µM [inhibitor, single point]"

# As entered above.
# max response, negative = inhibition with CC(C)C(CCNC(=O)CC(Cc1ccccc1)c1ccco1)c1ccco1 (stereo unspecified) is entered as inactive: -17.2%
# Potency with Cc1cc(NC(=O)Cc2cccs2)no1 is entered as inconclusive: 26.7 µM [inhibitor, partial curve]
